Results as given in patent EP2258724A1.
These are yes or no findings as the source states them, for the method shown. Some entries that bind do so weakly or less than the wild type. For part of these data: Tags and fused reporters may be left off the sequences shown.

T1: isolated recombinant mouse CD83 protein (mouse) (UniProt O88324)
T1 sequence: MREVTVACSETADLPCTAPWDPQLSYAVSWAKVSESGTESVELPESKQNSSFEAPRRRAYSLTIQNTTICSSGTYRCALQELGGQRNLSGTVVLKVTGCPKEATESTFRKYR

T2: recombinant human CD83 protein, chimeric protein joined to a portion of an immunoglobulin Fc fragment (human) (UniProt Q01151)
T2 sequence: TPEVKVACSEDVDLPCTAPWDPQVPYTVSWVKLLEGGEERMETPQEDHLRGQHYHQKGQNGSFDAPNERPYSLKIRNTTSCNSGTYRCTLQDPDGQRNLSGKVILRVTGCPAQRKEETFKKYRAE


Experiments:
[1] = molecular target: T1, isolated recombinant mouse CD83 protein (mouse); experiment: ELISA, isolated recombinant mouse CD83
[2] = molecular target: T1, isolated recombinant mouse CD83 protein (mouse); experiment: Biacore, isolated recombinant mouse CD83
[3] = molecular target: T2, recombinant human CD83 protein, chimeric protein joined to a portion of an immunoglobulin Fc fragment (human); experiment: ELISA, isolated recombinant human CD83 (Fc chimera)
[4] = molecular target: T2, recombinant human CD83 protein, chimeric protein joined to a portion of an immunoglobulin Fc fragment (human); experiment: Biacore, isolated recombinant human CD83 (Fc chimera)

binding [1] | binding [2] | binding [3] | binding [4] | Binder
binds | binds | binds | binds | 95F04 monoclonal anti-CD83 antibody (antibody, mouse IgG1, V domains shown) VH: QSVEESGGRLVTPGTPLTLTCTVSGIDLSSNAMIWVRQAPREGLEWIGAMDSNSRTYYATWAKGRFTISRTSSITVDLKITSPTTEDTATYFCARGDGGSSDYTEMWGPGTLVTVSS VL: QAVVTQTTSPVSAPVGGTVTINCQSSQSVYGNNELSWYQQKPGQPPKLLIYQASSLASGVPSRFKGSGSGTQFTLTISDLECDDAATYYCLGEYSISADNHFGGGTEVVVKR
binds | binds | – | – | 96G08 monoclonal anti-CD83 antibody (antibody, mouse IgG1, V domains shown) VH: QSVEESGGRLVTPGTPLTLTCTVSGIDLSSDGISWVRQAPGKGLEWIGIISSGGNTYYASWAKGRFTISRTSTTVDLKMTSLTTEDTATYFCARVVGGTYSIWGQGTLVTVSS VL: AQVLTQTASPVSAPVGGTVTINCQSSQSVYNNDFLSWYQQKPGQPPKLLIYYASTLASGVPSRFKGSGSGTQFTLTISDLECDDAATYYCTGTYGNSAWYEDAFGGGTEVVVKR
